{"source": "the supplement of paper PMC4604168 (melanoma cell lines)", "note": "The list shows a part of the results. Repeats are few or missing, and single values can be far off.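 The apoptosis fraction was the count of cleaved-PARP antibody-stained nuclei relative to all DNA-stained nuclei, imaged in 1,536-well plates. Screening doses were set so most cells survived, and baseline and induced cleaved-PARP levels vary greatly across cell lines.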"}
{"tested_on": "WM1745", "assay": "cleaved PARP positive nuclei fraction relative to DMSO control; melanoma cells; higher = more apoptosis", "conditions": "library dose: low library concentration; 72 h", "units": {"cleaved PARP positive nuclei fraction": "%"}}
{"smiles": "N#CC[C@H](C1CCCC1)n1cc(-c2ncnc3[nH]ccc23)cn1", "note": "[ruxolitinib] + CC(=O)O[C@@]12CO[C@@H]1C[C@H](O)[C@@]1(C)C(=O)[C@H](O)C3=C(C)[C@@H](OC(=O)[C@H](O)[C@@H](NC(=O)OC(C)(C)C)c4ccccc4)C[C@@](O)([C@@H](OC(=O)c4ccccc4)[C@H]21)C3(C)C [Docetaxel] (first compound 1 µM, partner dose 0.0001 µM)", "cleaved PARP positive nuclei fraction": 152}
{"smiles": "N#CC[C@H](C1CCCC1)n1cc(-c2ncnc3[nH]ccc23)cn1", "note": "[ruxolitinib] + C[C@]1(O)C[C@@H](c2nc(-c3ccc4ccc(-c5ccccc5)nc4c3)c3c(N)nccn32)C1 [OSI906] (first compound 1 µM, partner dose 0.4 µM)", "cleaved PARP positive nuclei fraction": 107}
{"smiles": "Cc1cn(-c2cc(NC(=O)c3ccc(C)c(Nc4nccc(-c5cccnc5)n4)c3)cc(C(F)(F)F)c2)cn1", "note": "[nilotinib] + O=C(O)C(=O)Nc1sc2c(c1C(=O)O)CCNC2 [TCS401] (first compound 0.2 µM, partner dose 1.66667 µM)", "cleaved PARP positive nuclei fraction": 100}
{"smiles": "Cc1cc(Nc2cc(N3CCN(C)CC3)nc(Sc3ccc(NC(=O)C4CC4)cc3)n2)n[nH]1", "note": "[Tozasertib] + CS(=O)(=O)CCNCc1ccc(-c2ccc3ncnc(Nc4ccc(OCc5cccc(F)c5)c(Cl)c4)c3c2)o1 [lapatinib] (first compound 0.006 µM, partner dose 0.8 µM)", "cleaved PARP positive nuclei fraction": 105}
{"smiles": "CC[C@]1(O)C[C@H]2CN(CCc3c([nH]c4ccccc34)[C@@](C(=O)OC)(c3cc4c(cc3OC)N(C=O)[C@H]3[C@@](O)(C(=O)OC)[C@H](OC(C)=O)[C@]5(CC)C=CCN6CC[C@]43[C@@H]65)C2)C1", "note": "[vincristine] + COc1ccc(-c2ccc3c(N4CCOCC4)nc(N4C[C@@H](C)O[C@@H](C)C4)nc3n2)cc1CO [KU0063794] (first compound 0.0001 µM, partner dose 0.02 µM)", "cleaved PARP positive nuclei fraction": 184}
{"smiles": "O=C(Nc1cc(C(F)(F)F)cc(C(F)(F)F)c1)c1cc(Cl)ccc1O", "note": "+ Cn1nnc2c(C(N)=O)ncn2c1=O [temozolomide] (first compound 0.016 µM, partner dose 2 µM)", "cleaved PARP positive nuclei fraction": 108}
{"smiles": "CCCCCCCCCCCCCCCCCCOP(=O)([O-])OC1CC[N+](C)(C)CC1", "note": "[Perifosine] + Cn1cc(/C=C2\\C(=O)Nc3cccnc32)c2ccccc21 [GW441756] (first compound 0.4 µM, partner dose 0.4 µM)", "cleaved PARP positive nuclei fraction": 72.5}
{"smiles": "N#CC[C@H](C1CCCC1)n1cc(-c2ncnc3[nH]ccc23)cn1", "note": "[ruxolitinib] + CC1(C)CCC(c2ccc(Cl)cc2)=C(CN2CCN(c3ccc(C(=O)NS(=O)(=O)c4ccc(N[C@H](CCN5CCOCC5)CSc5ccccc5)c(S(=O)(=O)C(F)(F)F)c4)cc3)CC2)C1 [ABT263] (first compound 1 µM, partner dose 0.4 µM)", "cleaved PARP positive nuclei fraction": 394}
{"smiles": "O=c1[nH]nc(Sc2ncc([N+](=O)[O-])s2)n1-c1ccc2c(c1)OCCO2", "note": "+ COc1cc2ncnc(Nc3ccc(Oc4ccccc4)cc3)c2cc1OC [SrcI1] (first compound 0.2 µM, partner dose 2 µM)", "cleaved PARP positive nuclei fraction": 110}
{"smiles": "CC[C@]1(O)C[C@H]2CN(CCc3c([nH]c4ccccc34)[C@@](C(=O)OC)(c3cc4c(cc3OC)N(C=O)[C@H]3[C@@](O)(C(=O)OC)[C@H](OC(C)=O)[C@]5(CC)C=CCN6CC[C@]43[C@@H]65)C2)C1", "note": "[vincristine] + CN(C)S(=O)(=O)c1ccc2c(c1)/C(=C/c1cc3c([nH]1)CCCC3)C(=O)N2 [SU6656] (first compound 0.0001 µM, partner dose 0.4 µM)", "cleaved PARP positive nuclei fraction": 107}
{"smiles": "O=C(Nc1cc(C(F)(F)F)cc(C(F)(F)F)c1)c1cc(Cl)ccc1O", "note": "+ COc1ccc(C2=N[C@@H](c3ccc(Cl)cc3)[C@@H](c3ccc(Cl)cc3)N2C(=O)N2CCNC(=O)C2)c(OC(C)C)c1 [Nutlin-3] (first compound 0.016 µM, partner dose 0.1 µM)", "cleaved PARP positive nuclei fraction": 76.9}
{"smiles": "O=C(/C=C/c1cccnc1)NCCCCC1CCN(C(=O)c2ccccc2)CC1", "note": "+ COc1ccc(Cl)c(Nc2nc3ccccc3nc2NS(=O)(=O)c2cccc(NC(=O)C(C)(C)N)c2)c1 [XL147] (first compound 0.01 µM, partner dose 0.8 µM)", "cleaved PARP positive nuclei fraction": 93.9}
